Results from paper PMC9841675.
No constants are given. Whether binding was seen depends on the method and setting. Binding seen in cells or lysates may run through a third protein. Some results given as binding are weak or reduced against the parent protein; the word gives no strength.

Protein sequences, listed by entry. Tags and fused reporters are not part of them. Lines headed by an entry give the natural chain unless they say otherwise; changes in a name come on top.
UniProt Q13547: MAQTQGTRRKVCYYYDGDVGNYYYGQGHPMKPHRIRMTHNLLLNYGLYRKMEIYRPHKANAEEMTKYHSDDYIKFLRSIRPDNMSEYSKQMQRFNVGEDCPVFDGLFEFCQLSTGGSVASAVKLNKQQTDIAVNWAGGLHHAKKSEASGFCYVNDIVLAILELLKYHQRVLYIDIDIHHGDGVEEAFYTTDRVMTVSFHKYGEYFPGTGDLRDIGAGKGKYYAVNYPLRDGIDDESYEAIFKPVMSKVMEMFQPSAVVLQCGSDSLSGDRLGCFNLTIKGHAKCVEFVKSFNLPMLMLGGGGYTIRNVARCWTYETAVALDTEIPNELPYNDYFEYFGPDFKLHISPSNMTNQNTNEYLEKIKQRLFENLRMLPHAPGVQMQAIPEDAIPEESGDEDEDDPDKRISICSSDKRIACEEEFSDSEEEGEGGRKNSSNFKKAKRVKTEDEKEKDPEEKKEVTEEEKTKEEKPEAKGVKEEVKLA
UniProt Q9GZN2: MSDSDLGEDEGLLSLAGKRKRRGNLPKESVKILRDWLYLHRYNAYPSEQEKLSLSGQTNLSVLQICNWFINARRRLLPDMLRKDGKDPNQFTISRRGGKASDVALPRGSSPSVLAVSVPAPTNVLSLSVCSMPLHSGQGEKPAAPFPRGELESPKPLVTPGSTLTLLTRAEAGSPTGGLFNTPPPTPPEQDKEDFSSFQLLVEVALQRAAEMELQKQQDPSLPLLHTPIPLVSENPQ

Biological target: HDAC1, endogenous (human (endogenous in H1299)) (UniProt Q13547)
Assay: co-IP; lysates of wild type (control) and Flag-TGIF2^AA-overexpressing H1299 cells incubated with protein A/G agarose beads and antibody overnight at 4 °C, washed with PBS; IP with anti-HDAC1 and anti-TGIF2 (control cells) or anti-HDAC1 and anti-Flag (TGIF2^AA cells); western blot

Flag-TGIF2^AA (phosphorylation-deficient TGIF2 mutant, T182A and T186A) (from UniProt Q9GZN2 1-237)
binding: no binding

phosphorylated TGF-β-induced factor homeobox 2 (p-TGIF2), endogenous (from UniProt Q9GZN2 1-237)
binding: binds
